PubChem BioAssay AID1671190 (National Center for Advancing Translational Sciences (NCATS), 2021)
The campaign covered roughly 580,000 compounds. About 6,100 (1.1%) were called active. Inconclusive means that the source gave no clear call. Such entries were picked first, then a sample of the others. Calls come from the whole dose curve; as a rule, active = well fitted inhibition curve with a large enough effect; inconclusive = small, poorly fitted or top-dose-only effect, or another doubt; inactive = no such curve, though single readings can be large or run the other way. Potencies beside an inconclusive call are fits to weak or partial responses and may not hold up.

Amino acid sequences for entries named in this document (tags omitted). A change or cut given only in a name is not applied to a line headed by its entry.
UniProt P18054: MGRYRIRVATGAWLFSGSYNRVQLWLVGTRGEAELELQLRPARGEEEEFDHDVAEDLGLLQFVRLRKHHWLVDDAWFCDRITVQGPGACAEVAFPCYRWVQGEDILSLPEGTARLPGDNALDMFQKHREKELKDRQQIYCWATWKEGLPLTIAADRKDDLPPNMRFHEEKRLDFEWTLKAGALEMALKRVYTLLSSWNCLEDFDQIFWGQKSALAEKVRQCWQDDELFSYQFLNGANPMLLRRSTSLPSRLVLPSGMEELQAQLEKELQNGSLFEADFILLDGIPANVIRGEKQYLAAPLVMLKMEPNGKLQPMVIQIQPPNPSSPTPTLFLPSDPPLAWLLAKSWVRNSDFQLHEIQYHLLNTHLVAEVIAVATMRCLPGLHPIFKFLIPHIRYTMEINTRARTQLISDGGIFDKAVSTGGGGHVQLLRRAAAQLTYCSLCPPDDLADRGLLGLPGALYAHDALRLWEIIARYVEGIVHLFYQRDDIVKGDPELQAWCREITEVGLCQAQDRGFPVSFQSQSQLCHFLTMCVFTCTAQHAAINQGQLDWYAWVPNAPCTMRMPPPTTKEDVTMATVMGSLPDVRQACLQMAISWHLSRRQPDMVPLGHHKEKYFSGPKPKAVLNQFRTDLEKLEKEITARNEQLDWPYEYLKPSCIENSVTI

molecular target: Polyunsaturated fatty acid lipoxygenase ALOX12 (Homo sapiens) (UniProt P18054); experiment: Primary qHTS assay for inhibitors of human arachidonate 12S-lipoxygenase (ALOX12): Round 2; conditions: purified 12hLO, xylenol orange hydroperoxide absorbance; activity change, negative = inhibition: at 108 µM (top of the series) unless noted
Method in brief: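 Purified human 12hLO (150 nM final) in 25 mM Hepes, 0.01% Triton X-100, pH 7.0 was preincubated 15 min at room temperature with compound. Then 40 uM arachidonic acid was added, 30 min. Hydroperoxide was read by Fe-XO absorbance ratio 573/405 nm.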
% is set by controls: 0 for no effect and ±100 for the full control effect; potency is the fitted concentration of half-maximal effect.

Row | SMILES | Potency | activity change, negative = inhibition
1 | Clc1ccc(CN2CC[C@H](c3nc4cc(Cl)ccc4o3)C2)cc1 | active: 22.4 µM | –
2 | O=C(NC(c1ccccc1)c1ccccc1)c1cnc2c(c1)N(C(=O)Cc1ccc(O)cc1)CCC2 | inconclusive: 50.1 µM [inhibitor, partial curve, poor fit] | –
3 | CC(=O)Oc1c(Br)cc(N(C(C)=O)S(=O)(=O)c2ccccc2)c2ccccc12 | active: 12.6 µM | –
4 | O=C(CSc1nnc(C2CCCCC2)n1Cc1ccccc1)NCc1ccco1 | – | inactive: 0%
5 | CCC(CC)NC(=O)Nc1ccc(C)c(F)c1 | – | inactive: -21.8%
6 | Cc1ccc(F)cc1-c1nc(NCC2CC2)nc2ccsc12 | inconclusive: 44.7 µM [inhibitor, partial curve, poor fit] | –
7 | CC(=O)Nc1cccc(-c2nc(-c3c(C)noc3C)cc3cc(C)oc23)c1 | inconclusive: 112 µM [inhibitor, partial curve, poor fit] | –
8 | O=C1Nc2ccc(S(=O)(=O)N(CCO)CCO)c3cccc1c23 | inconclusive: 141 µM [inhibitor, partial curve, poor fit] | –
9 | Cc1ccc(CN2CCN(c3nc4c([nH]3)c(=O)n(C)c(=O)n4C)CC2)cc1 | – | inactive: -8.93%
10 | CCN1CCN(c2cc(C)c3cc(NC(=S)NCCN(C)C)ccc3n2)CC1 | inconclusive: 50.1 µM [inhibitor, partial curve, poor fit] | –
11 | Cc1cc(O)cc2c1C(=O)/C(=C/c1ccco1)O2 | inconclusive: 44.7 µM [inhibitor, partial curve, poor fit] | –
12 | CCc1sc(C(=O)Nc2ccc3c(c2)OCO3)cc1C | inconclusive: 100 µM [inhibitor, single point] | –
13 | CC(C)N(Cc1cc2ccccc2[nH]c1=O)C(=O)c1ccco1 | – | inactive: -8.38%
14 | COc1cc(/C=C/c2ccc3cccc(OC)c3n2)ccc1OC(C)=O | – | inactive: -4.22%
15 | Cc1ccc([S+](=O)([O-])N2CCCC(c3nn(-c4ccc(Cl)cc4)c(=O)[nH]3)C2)cc1 (centres undefined) | inconclusive: 17.8 µM [inhibitor, single point] | –
16 | Cc1nc(NC(=O)COC(=O)C(C)NC(=O)c2ccccc2)c(Cl)cc1Cl (centres undefined) | inconclusive: 35.5 µM [inhibitor, partial curve, poor fit] | –
17 | COC(=O)c1cc2occc2n1Cc1ccc(Cl)cc1 | – | inactive: -9.57%
18 | N/C(=C\C(=O)c1c(O)c(F)c(F)c(F)c1F)C(=O)O | inconclusive: 2 µM [inhibitor, full curve, poor fit] | –
19 | O=C(NC1CCCC1)C1CCCN(C(=O)Cc2c[nH]c3ccccc23)C1 (centres undefined) | – | inactive: 1.61%
20 | CCOC(=O)c1ccc(S(=O)(=O)n2c(=O)oc3ccccc32)cc1 | inconclusive: 50.1 µM [inhibitor, partial curve, poor fit] | –
21 | O=C(NCCN1CCCCC1)C1(CCO)CCN(c2ncccn2)C1 (centres undefined) | – | inactive: 66.1%
22 | COc1ccc(OC)c(CN2CC[C@@H]3OCC(=O)N(Cc4c[nH]c5ccccc45)[C@H]3CC2)c1 | – | inactive: -24.2%
23 | Cc1csc(NC(=O)Cc2coc3cc(C)c(C(C)C)cc23)n1 | inconclusive: 44.7 µM [inhibitor, partial curve, poor fit] | –

Row | SMILES | Potency | activity change, negative = inhibition
24 | CC1(c2ccccc2)N(Cc2ccccc2F)C(=O)OC12CCN(C(=O)Cc1ccc(O)cc1)CC2 (centres undefined) | inconclusive: 25.1 µM [inhibitor, partial curve] | –
25 | O=C(CCN1CCCCCC1)Nc1ccc2c(c1)OCCO2 | inconclusive: 2.24 µM [inhibitor, full curve] | –
26 | Cc1ccc(C)c(NC(=S)NC(C)C(c2cccs2)N2CCOCC2)c1 (centres undefined) | – | inactive: 3.57%
27 | O=C1NC[C@H](CCCCN2C[C@H](Cc3ccc(O)cc3)N(CCc3ccccc3)C(=O)C2=O)N(CCC2CCCCC2)C1=O | inconclusive: 100 µM [inhibitor, single point] | –
28 | COCCNCC(=O)N1c2ccccc2Sc2ccccc21 | inconclusive: 0.447 µM [inhibitor, full curve, poor fit] | –
29 | CCOC(=O)c1[nH]c(C)c(CCC(=O)Nc2ccc(N(CC)CC)cc2C)c1C | inconclusive: 126 µM [inhibitor, partial curve, poor fit] | –
30 | CCn1cc(S(=O)(=O)c2cc(C)cc(C)c2)c(=O)c2cc(F)c(N3CCC(C)CC3)cc21 | inconclusive: 22.4 µM [inhibitor, partial curve, poor fit] | –
31 | CCCC[n+]1ccn(-c2nc3ccccc3nc2[N-]S(=O)(=O)c2ccc(Br)cc2)c1 | – | inactive: 31.7%
32 | CCC(=C(c1ccccc1)c1ccc(OCCN(C)C)cc1)c1ccccc1 | inconclusive: 1 µM [inhibitor, full curve, poor fit] | –
33 | CC(=O)c1ccc(NC(=O)[C@@]2(CC(=O)O)CC(c3ccc(Br)cc3)=NO2)cc1 | active: 44.7 µM | –
34 | C#CCOCCOCCOCCNc1nc(N2CCOCC2)nc(N2CCN(C(=O)[C@H](CCCCN)n3cc([C@@H](N)C(C)CC)nn3)CC2)n1 (some centres undefined) | inconclusive: 35.5 µM [inhibitor, partial curve] | –
35 | CC1CC[C@@]2(OC1)OC1CC3C4CC(O)C5CC(O)CCC5(C)C4CCC3(C)C1[C@@H]2C (some centres undefined) | – | inactive: 2.93%
36 | CSc1sc(C(=O)NC(=O)NCc2ccncc2)c(C)c1-c1ccon1 | – | inactive: -14.9%
37 | COc1ccc(CC(=O)Nc2nc(-c3ccccc3)c(C(C)=O)s2)cc1OC | inconclusive: 100 µM [inhibitor, partial curve, poor fit] | –
38 | O=C(/C=C/c1ccc(OCc2ccccc2)c(OCc2ccccc2)c1)c1cccnc1 | – | inactive: 10.8%
39 | N#C/C(=C/c1ccc(F)c(F)c1)C(=O)Nc1ccc(Oc2ccc(NC(=O)/C(C#N)=C\c3ccc(F)c(F)c3)cc2)cc1 | inconclusive: 11.2 µM [inhibitor, full curve, poor fit] | –
40 | CC(C)N1CCC2(CC1)CN(C(=O)c1ccccn1)Cc1ccccc1O2 | – | inactive: 36%
41 | CC(C)(C)C(=O)N1CCN(c2ccc(NC(=O)c3ccc([N+](=O)[O-])o3)cc2)CC1 | – | inactive: -12.4%
42 | O=C(CCSC1CCc2ccccc2NC1=O)Nc1ccc2c(c1)OCCO2 (centres undefined) | – | inactive: 4.99%
43 | Cc1ccc(C(=O)NC(Nc2cccc(C(F)(F)F)c2)C(=O)c2ccccc2)cc1 (centres undefined) | – | inactive: -18.6%
44 | CCc1noc(-c2cn(C3CCN(C(=O)c4cc(Cl)ccc4OC)CC3)nn2)n1 | – | inactive: 29.6%
45 | CC(C)(C)c1nnc(NC(=O)c2cc(-c3ccccc3)nc3ccccc23)s1 | inconclusive: 14.1 µM [inhibitor, partial curve, poor fit] | –
46 | Cc1cccc(Cn2c(SCC(O)CO)nc3c2c(=O)[nH]c(=O)n3C)c1 (centres undefined) | inconclusive: 39.8 µM [inhibitor, partial curve, poor fit] | –

A few values from the entries so far.
Entry for `CCC(=C(c1ccccc1)c1ccc(OCCN(C)C)cc1)c1ccccc1` under Potency: inconclusive: 1 µM [inhibitor, full curve, poor fit]
Entry for `CCn1cc(S(=O)(=O)c2cc(C)cc(C)c2)c(=O)c2cc(F)c(N3CCC(C)CC3)cc21` under Potency: inconclusive: 22.4 µM [inhibitor, partial curve, poor fit]
Entry for `CSc1sc(C(=O)NC(=O)NCc2ccncc2)c(C)c1-c1ccon1` under activity change, negative = inhibition: inactive: -14.9%
Entry for `CC(C)(C)c1nnc(NC(=O)c2cc(-c3ccccc3)nc3ccccc23)s1` under Potency: inconclusive: 14.1 µM [inhibitor, partial curve, poor fit]
Entry for `O=C1NC[C@H](CCCCN2C[C@H](Cc3ccc(O)cc3)N(CCc3ccccc3)C(=O)C2=O)N(CCC2CCCCC2)C1=O` under Potency: inconclusive: 100 µM [inhibitor, single point]

Next entries:

Row | SMILES | Potency | activity change, negative = inhibition
47 | Clc1cccc(Nc2ncnc3onc(-c4cccc(Cl)c4)c23)c1 | inconclusive: 100 µM [inhibitor, single point] | –
48 | Cc1csc(NC(=O)Cc2ccc(Cl)cc2)n1 | inconclusive: 112 µM [inhibitor, partial curve, poor fit] | –
49 | COc1cccc(C2=CC(c3cc(Cl)ccc3OC(F)F)n3ncnc3N2)c1 (centres undefined) | inconclusive: 44.7 µM [inhibitor, partial curve, poor fit] | –
50 | O=C1CCN(c2ccccc2)N1 | inconclusive: 39.8 µM [inhibitor, partial curve, poor fit] | –
51 | Cc1cc(C)c(NC(=O)c2cnc3ccccc3n2)c(C)c1 | – | inactive: -0.112%
52 | CCOc1ccc(C(=O)c2sc(Nc3c(C)cccc3C)nc2N)cc1 | inconclusive: 100 µM [inhibitor, partial curve, poor fit] | –
53 | CCOCCCNC(=O)c1cc(SC)ccc1C | inconclusive: 0.112 µM [inhibitor, full curve, poor fit] | –
54 | O=C(CC(c1ccccc1)c1cc(Br)ccc1O)NCC1(c2ccccc2)CCCC1 (centres undefined) | – | inconclusive: -46% [inhibitor]
55 | CCc1cccc(NC(=O)C2CCCN(c3cnn(Cc4ccccc4)c(=O)c3)C2)c1 (centres undefined) | active: 39.8 µM | –
56 | Cc1ccc(S(=O)(=O)N2CCC(C(=O)Nc3ncccc3O)CC2)cc1 | inconclusive: 50.1 µM [inhibitor, partial curve, poor fit] | –
57 | CCCCCCC1CC[S+](c2cc(O)ccc2O)CC1 (centres undefined) | inconclusive: 7.08 µM [inhibitor, full curve, poor fit] | –
58 | Cc1cccc(NS(=O)(=O)c2cc(OCC(N)=O)c(C)cc2Cl)c1 | – | inactive: 1.01%
59 | COc1ccc2nc(-n3c(C)ccc3C)sc2c1 | inconclusive: 12.6 µM [inhibitor, partial curve, poor fit] | –
60 | Cc1ccc(N2C(=O)c3cccc4c(C(=O)O)ccc(c34)C2=O)cc1 | – | inactive: -18%
61 | Cc1ccccc1S(=O)(=O)Cc1ccc(C(=O)O)o1 | inconclusive: 6.31 µM [inhibitor, partial curve, poor fit] | –
62 | O=C1CCC2(CCN(C(=O)c3ccco3)CC2)CN1CC1CCCO1 (centres undefined) | – | inactive: 19.6%
63 | COc1ccc(-n2c(SCC#N)nc3c(sc(=S)n3-c3ccccc3)c2=O)c(OC)c1 | – | inactive: -27.5%
64 | CCc1c(C)sc(NC(=O)Cc2ccc(Cl)cc2)c1C#N | inconclusive: 25.1 µM [inhibitor, single point] | –
65 | COc1ccc(C(C)(O)c2nc(-c3ccc(N(C)C)cc3)cs2)cc1 (centres undefined) | inconclusive: 70.8 µM [inhibitor, partial curve, poor fit] | –
66 | C=CCn1cc(C=O)c2ccccc21 | inconclusive: 0.398 µM [inhibitor, full curve, poor fit] | –
67 | O=C(c1ccc(-c2ccccc2)cc1)c1cc2ccccc2o1 | – | inactive: 40%
68 | Cc1ccc(NC(=O)C(C)Oc2ccccc2)cc1S(=O)(=O)N1CCCCCC1 (centres undefined) | – | inactive: 435%
69 | CCCc1[nH]nc2c1C(C1CCCCC1)C(C#N)=C(N)O2 (centres undefined) | inconclusive: 56.2 µM [inhibitor, partial curve, poor fit] | –
